## Primary screen of a compound library

Amino acid sequences for entries named in this document (tags omitted).
UniProt E9BF75, entry or part of it: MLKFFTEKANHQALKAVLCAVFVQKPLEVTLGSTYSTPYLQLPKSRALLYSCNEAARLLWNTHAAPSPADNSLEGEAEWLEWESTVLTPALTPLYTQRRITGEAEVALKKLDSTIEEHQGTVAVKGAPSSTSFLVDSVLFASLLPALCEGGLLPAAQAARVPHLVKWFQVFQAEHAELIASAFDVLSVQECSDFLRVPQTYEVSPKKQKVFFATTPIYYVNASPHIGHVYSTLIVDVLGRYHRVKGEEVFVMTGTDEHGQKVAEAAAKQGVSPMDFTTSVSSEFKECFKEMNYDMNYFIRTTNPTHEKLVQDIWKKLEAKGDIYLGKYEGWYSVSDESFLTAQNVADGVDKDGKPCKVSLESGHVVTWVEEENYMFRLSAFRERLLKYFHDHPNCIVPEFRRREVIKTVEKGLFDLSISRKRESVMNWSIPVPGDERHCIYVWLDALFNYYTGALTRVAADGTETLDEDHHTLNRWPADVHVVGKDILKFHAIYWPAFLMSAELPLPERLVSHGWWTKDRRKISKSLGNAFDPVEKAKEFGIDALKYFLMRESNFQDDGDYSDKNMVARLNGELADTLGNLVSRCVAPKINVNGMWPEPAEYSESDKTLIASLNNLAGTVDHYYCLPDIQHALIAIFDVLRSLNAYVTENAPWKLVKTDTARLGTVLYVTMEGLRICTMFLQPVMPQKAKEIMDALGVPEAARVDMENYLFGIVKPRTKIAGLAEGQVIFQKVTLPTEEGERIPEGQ

Mtb heat-shock: 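Assay on Mycobacterium tuberculosis, filed only as a heat shock assay from Cornell; the read-out is not stated. The concentration is filed as 10 mM, unlikely as a test dose, so the dose is not known. Direction is inferred from retests: higher values go with stronger inhibition. About 69,000 compounds were tested under these conditions; 1.4% (about 930) showed 50% or more at least once.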
Mtb growth Cornell: 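Whole-cell assay for inhibitors of Mycobacterium tuberculosis growth, labelled Cornell in the record; the read-out is not stated. The concentration is filed as 10 mM, unlikely as a test dose, so the dose is not known. Higher means stronger inhibition (inferred from two other growth screens of the library). About 53,000 compounds were tested under these conditions; 1.7% (about 900) showed 50% or more at least once.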
LdMetRS: 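Primary screen of methionyl-tRNA synthetase; the read-out is not stated. Target: Methionyl-tRNA synthetase (putative), Leishmania donovani (UniProt E9BF75). The test concentration is not given. Values are per cent inhibition. Size under these conditions: about 68,000 compounds, about 24 of them at 50% or above in at least one test.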

All values are in %.
How 0% and 100% were set is not recorded. Most values in the screen are low, and negative values occur.
The compounds are a random part of those screened.
A dash means the value is not listed here; it may have been measured.

| compound | Mtb heat-shock | Mtb growth Cornell | LdMetRS |
|---|---|---|---|
| `O=C(Nc1ccccc1OCC1CCCCO1)c1ccc(O)nc1` (stereo not drawn) | 10.64 | -5.976 | 7.216 |
| `CNC(=O)CN1CCOCC12CCN(C(=O)c1ccc(C)cc1)CC2.O=C(O)C(F)(F)F` | -38.04 | 15.73 | - |
| `Cn1ccc(NC(=O)CN2C[C@H]3CC[C@@H]2CN(Cc2ccccn2)C3)n1` | - | - | 8.798 |
| `CCN(C(=O)c1nc2c(s1)CCCN2S(C)(=O)=O)C(C)C` | 34.57 | -28.02 | 5.495 |
| `CCCN1C[C@H]2CC[C@@H]1CN(C(=O)Cn1c(C)cc(C)nc1=O)C2` | - | - | 16.45 |
| `CC1CCCN(CCNC(=O)c2scnc2Cl)C1` (stereo not drawn) | -16.15 | 1.511 | 21.14 |
| `COCCN1CCC(CN(CC2CCCO2)C(=O)C2CCOCC2)CC1` (stereo not drawn) | 0.2908 | 36.17 | 7.887 |
| `O=C(NC1CCN(Cc2cccc3c2OCCO3)CC1)c1cccs1` | -12.86 | -12.52 | 19.2 |
| `Cn1cccc1-c1cc(C(=O)N2CCCCC2c2ccc(F)cc2)[nH]n1` (stereo not drawn) | 24.73 | - | 17.03 |
| `O=C1CC2(CCCCC2)CC(=O)N1CC(O)COCc1ccc(Cl)cc1` (stereo not drawn) | -3.352 | 32.83 | 15.24 |
| `CCCc1nnc(N(C)CC2CCN(CC(C)C)CC2)o1` | -29.49 | -50.87 | 11.56 |
| `Cn1cc(C2CCCN2C(=O)CCCOCc2ccccc2)cn1` (stereo not drawn) | -10.87 | 7.661 | 3.286 |
| `Cn1cc(NS(=O)(=O)c2ccc3c(c2)CCCC3)ccc1=O` | -5.441 | - | 17.32 |
| `c1ccc(Cc2noc(CN3CCOC(Cn4cccn4)C3)n2)cc1` (stereo not drawn) | -9.676 | - | 12.05 |
| `CCOCC1COCCC12CCN(C(=O)CS(C)(=O)=O)CC2` (stereo not drawn) | -19.97 | 23.63 | 17.03 |
| `CC(C)c1ncncc1C(=O)NCCN1CCCS1(=O)=O` | -23.67 | 9.403 | 7.975 |
| `Cc1cc(CN2CC[C@H]3C(=O)N(c4ccccc4)CCO[C@H]3C2)no1` | - | - | 8.711 |
| `Cc1cnccc1-c1cnn(CCNC(=O)c2ccncc2)c1C1CC1.Cl` | -0.5476 | 1.407 | - |
| `CC(C(=O)NCCCN1CCOCC1)n1cncn1` (stereo not drawn) | -10.61 | -17.96 | 5.143 |
| `Fc1cnc(N2CC[C@@H]3OC(COCc4cccnc4)CC[C@@H]32)nc1` (stereo partly drawn) | - | - | 11.68 |
| `CC(NC(=O)c1cccnc1N(C)C)c1ccccc1Br` (stereo not drawn) | -36.18 | - | 0.8357 |
| `CC(C)NC(=O)O[C@H]1COCCN(c2nc3ccccc3s2)C1` | -35.42 | - | 13.74 |
| `CC(Cn1cncn1)NC(=O)NCC(C)(C)Cc1ccccc1` (stereo not drawn) | 8.653 | 26.97 | 15.84 |
| `Fc1ccc(-n2cccn2)c(CN2CCCCC2CCn2ccnc2)c1` (stereo not drawn) | -19.66 | -68.33 | 14.78 |
| `c1ccc2oc(CCCN3CCOC(Cn4cncn4)C3)nc2c1` (stereo not drawn) | -14.05 | - | 9.945 |
| `Cc1nc(CN2CCC3(CC2)C(=O)N(C)CCN3C)cs1` | - | - | 10.99 |
| `CN(C)C(=O)[C@@H]1CCO[C@@H]2CCN(c3ncccn3)C[C@@H]21` | - | - | 5.537 |
| `CN1CCCCc2c1nc1c(c2N)CCC1.O=C(O)c1cc([N+](=O)[O-])ccc1Cl` | -19.05 | 39 | 5.362 |
| `c1coc(CN2Cc3nccn3CC(Cn3cncn3)C2)c1` (stereo not drawn) | -29.59 | 33.47 | 10.5 |
| `CC(=O)N(Cc1noc(C)n1)C1CCN(Cc2cc(C)on2)C1` (stereo not drawn) | 4.184 | - | 4.861 |
| `O=C(O)C(F)(F)F.O=C(O)C(F)(F)F.[H][C@]12CCC[C@@]1(COc1ccccn1)CN(C(=O)c1ccc(C)cn1)C2` | -29.64 | 19.03 | - |
| `CCNC(=O)CNCc1c(C(C)C)nn(C)c1N1CCOCC1` | 16.72 | - | 17.71 |
| `COC1CCN(S(=O)(=O)N2C[C@H](c3ccccc3)[C@@H](N)C2)CC1` | 15.84 | 9.322 | 10.76 |
| `Cc1nc(C)n(CC2CCCCN2CC(=O)Nc2nncs2)n1` (stereo not drawn) | -5.246 | -10 | 14.63 |
| `CCn1cc(-c2nn3c(C(F)(F)F)nnc3s2)c(C)n1` | 6.057 | 18.15 | 4.211 |
| `Cc1ccc(CN2CCCn3cnc(COCC4CC4)c3C2)o1` | - | - | 12.7 |
| `COCC(=O)N1CCCN(Cc2cc(C(C)C)no2)CC1` | -22.51 | -14.55 | 1.609 |
| `CCN1CCC(NC(=O)CN2CCc3c(nc(C4CC4)n3C)C2)CC1` | 11.9 | 4.925 | 9.312 |
| `CC(C)NC(=O)N1CC[C@@H]2[C@@H]1CC(=O)N2Cc1cccnc1` | - | - | 10.64 |
| `O=C(O)C(F)(F)F.O=S(=O)(C1CC1)N1CC[C@H](OCC2CC2)[C@@H]1Cc1cccnc1` | -10.09 | -3.906 | - |
| `CN1CCC(NCC2(O)CCCN(Cc3ccccc3F)C2=O)CC1` (stereo not drawn) | 3.22 | - | - |
| `CC[C@@H]1N(CC2CCC2)CCC[C@]12CCC(=O)N2Cc1ccncc1` | -6.498 | 15.14 | 18.49 |
| `Fc1ccc(CNCCn2cccn2)c(F)c1` | -5.709 | -22.38 | -6.7 |

3 of the entries, repeated:

| compound | Mtb heat-shock | Mtb growth Cornell | LdMetRS |
|---|---|---|---|
| `Fc1ccc(CNCCn2cccn2)c(F)c1` | -5.709 | -22.38 | -6.7 |
| `Fc1ccc(-n2cccn2)c(CN2CCCCC2CCn2ccnc2)c1` (stereo not drawn) | -19.66 | -68.33 | 14.78 |
| `CC(NC(=O)c1cccnc1N(C)C)c1ccccc1Br` (stereo not drawn) | -36.18 | - | 0.8357 |

Data taken from ChEMBL document CHEMBL3988442, “University of Dundee, Small-Polar-MMV Screening Library” (2021).